Assay results reported in patent US20250144104.

What was measured:
YTHDF1 YTH domain = target: T1, YTHDF1 YTH domain (UniProt Q9BYJ9); assay: FP; settings: specific binding to m6A-RNA stated in p283; purified recombinant protein; protein details: N-terminal His-tag (pET28a), E. coli BL21(DE3); label: 5'-FAM; variant of FAM-m6A-RNA
T1 sequence (looked up): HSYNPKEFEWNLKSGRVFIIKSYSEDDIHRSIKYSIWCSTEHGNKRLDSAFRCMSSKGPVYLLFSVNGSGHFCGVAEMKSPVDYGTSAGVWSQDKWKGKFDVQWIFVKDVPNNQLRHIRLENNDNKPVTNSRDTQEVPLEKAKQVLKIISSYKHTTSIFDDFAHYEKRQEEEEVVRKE

YTHDC2 YTH domain = target: T2, YTHDC2 YTH domain (UniProt Q9H6S0); assay: FP; settings: m6A at position 8; Kd higher than for other YTH domains; purified recombinant protein; protein details: N-terminal His-tag (pET28a), E. coli BL21(DE3); label: 5'-FAM
T2 sequence (looked up): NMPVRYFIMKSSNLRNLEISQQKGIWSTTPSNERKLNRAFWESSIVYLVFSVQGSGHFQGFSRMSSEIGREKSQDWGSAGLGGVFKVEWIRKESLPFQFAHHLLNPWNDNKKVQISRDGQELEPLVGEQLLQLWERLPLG

Sequence | binding result (YTHDF1 YTH domain) | binding result (YTHDC2 YTH domain)
GAACCGGACUGUCUUA [FAM-A-RNA] | binds more weakly | 
GAACCGGACUGUCUUA [FAM-m6A-RNA] |  | binds more weakly

A weaker result is weaker than the reference pair of the same experiment. Where a protein sequence is shown, tags need not be part of it.
